Measured values reported in patent US20210311061A1, “USE OF TROP-2 AS PREDICTIVE MARKER OF RESPONSE TO ANTI-TUMOR THERAPY BASED ON INHIBITORS OF CD9, AKT AND MOLECULES OF THE TETRASPANIN SIGNALLING NETWORK” (ONCOXX BIOTECH S.R.L., priority 2012, published 2021).
These are yes or no findings as the source states them, for the method shown. Binding seen in cells or lysates may run through a third protein. Some results given as binding are weak or reduced against the parent protein; the word gives no strength.

Amino acid sequences for entries named in this document (tags omitted). Residues count along the entry.
UniProt P21926, residues 2-228: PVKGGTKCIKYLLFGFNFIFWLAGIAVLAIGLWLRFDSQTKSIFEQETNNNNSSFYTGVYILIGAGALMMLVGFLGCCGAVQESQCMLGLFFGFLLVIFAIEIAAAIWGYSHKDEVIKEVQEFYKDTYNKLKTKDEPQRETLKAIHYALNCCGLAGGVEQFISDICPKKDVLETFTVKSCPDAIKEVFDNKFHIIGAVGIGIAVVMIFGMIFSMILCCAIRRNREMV
UniProt P09758, residues 27-323: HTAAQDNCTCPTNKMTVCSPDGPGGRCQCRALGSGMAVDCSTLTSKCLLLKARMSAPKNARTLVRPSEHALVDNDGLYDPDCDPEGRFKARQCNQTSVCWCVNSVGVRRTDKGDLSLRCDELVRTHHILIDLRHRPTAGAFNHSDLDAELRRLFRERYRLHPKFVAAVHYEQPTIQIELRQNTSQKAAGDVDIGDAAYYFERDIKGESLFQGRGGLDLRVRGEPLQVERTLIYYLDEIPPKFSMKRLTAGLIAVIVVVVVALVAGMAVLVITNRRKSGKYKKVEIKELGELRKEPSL

Key:
[1] = target: T1, murine CD9 (murine) (UniProt P40240); assay: co-capping and co-immunoprecipitation (also confocal co-localization), MTE 4-14 cells
T1 sequence (looked up): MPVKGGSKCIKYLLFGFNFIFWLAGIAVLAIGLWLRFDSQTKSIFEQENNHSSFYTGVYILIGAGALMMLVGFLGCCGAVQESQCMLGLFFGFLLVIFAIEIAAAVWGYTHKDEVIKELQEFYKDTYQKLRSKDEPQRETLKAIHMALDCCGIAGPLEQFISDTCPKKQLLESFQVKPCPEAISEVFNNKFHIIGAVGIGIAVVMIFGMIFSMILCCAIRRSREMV

[2] = target: T1, murine CD9 (murine); assay: co-immunoprecipitation from BRIJ lysate, Western blot, MTE 4-14 cells
[3] = target: human CD9 (human) (UniProt P21926); assay: co-immunoprecipitation from BRIJ lysate, Western blot, MCF7 cells
[4] = target: human CD9 (human) (UniProt P21926); assay: co-capping and co-immunoprecipitation, MCF7 cells

Measured: binding

Trop-2 (human, wild-type) (from UniProt P09758 27-323) (receptor)
binds: all assays above
